Assay results taken from PMC9095880, “AIMP2-DX2 provides therapeutic interface to control KRAS-driven tumorigenesis” (Nature Communications, 2022).
Results are given in words; binding and its absence hold for the method and conditions named. For part of these data: Binding seen in cells or lysates may run through a third protein.

T1: 15N-labeled DX2 51-251 (C136S, C222S) (human) (UniProt Q13155)
T1 sequence (chain, 15N-labeled): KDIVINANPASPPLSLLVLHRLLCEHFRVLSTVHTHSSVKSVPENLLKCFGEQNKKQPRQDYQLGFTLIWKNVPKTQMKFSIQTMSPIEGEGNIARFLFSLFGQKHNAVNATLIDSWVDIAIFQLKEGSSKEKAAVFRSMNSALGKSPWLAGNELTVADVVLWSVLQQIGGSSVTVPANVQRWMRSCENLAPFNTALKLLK

B1: RING-finger and CHY-zinc-finger domain-containing 1 (RCHY1) (enzyme, UniProt Q96PM5 1-261)
chain: MAATAREDGASGQERGQRGCEHYDRGCLLKAPCCDKLYTCRLCHDNNEDHQLDRFKVKEVQCINCEKIQHAQQTCEECSTLFGEYYCDICHLFDKDKKQYHCENCGICRIGPKEDFFHCLKCNLCLAMNLQGRHKCIENVSRQNCPICLEDIHTSRVVAHVLPCGHLLHRTCYEEMLKEGYRCPLCMHSALDMTRYWRQLDDEVAQTPMPSEYQNMTVDILCNDCNGRSTVQFHILGMKCKICESYNTAQAGGRRISLDQQ

What was measured:
[1] = target: T1, 15N-labeled DX2 51-251 (C136S, C222S) (human); assay: NMR titration; 1H-15N TROSY of 0.3 mM 15N-DX2 51-251 (C136S, C222S) with and without 3.0 mM peptide; 20 mM Bis-Tris pH 6.0, 100 mM NaCl, 100 mM glycine, 1 mM DTT, 1 mM PMSF; 298 K; both purified
[2] = target: GFP-KRAS4B (UniProt P01116); assay: co-IP; co-precipitation of E3 ligases with GFP-KRAS4B in 293T cells; cellular binding of KRAS4A or 4B to Smurf2 with or without DX2

Row | Binder | binding [1] | binding [2]
1 | RKLNPPDESGPGCMSCKC [HRAS HVR peptide] | no binding (tested: 3.0 mM) | –
2 | KKKRKSLAKRIRERC [RALA HVR peptide] | no binding (tested: 3.0 mM) | –
3 | B1 | – | no binding
